Experimental data: patent US20160287622

By UniProt entry, the sequences of proteins in these tests, tags left out. Where a name states a change or a piece, a line headed by the entry shows the natural chain unless it says otherwise.
UniProt Q7Z2W4: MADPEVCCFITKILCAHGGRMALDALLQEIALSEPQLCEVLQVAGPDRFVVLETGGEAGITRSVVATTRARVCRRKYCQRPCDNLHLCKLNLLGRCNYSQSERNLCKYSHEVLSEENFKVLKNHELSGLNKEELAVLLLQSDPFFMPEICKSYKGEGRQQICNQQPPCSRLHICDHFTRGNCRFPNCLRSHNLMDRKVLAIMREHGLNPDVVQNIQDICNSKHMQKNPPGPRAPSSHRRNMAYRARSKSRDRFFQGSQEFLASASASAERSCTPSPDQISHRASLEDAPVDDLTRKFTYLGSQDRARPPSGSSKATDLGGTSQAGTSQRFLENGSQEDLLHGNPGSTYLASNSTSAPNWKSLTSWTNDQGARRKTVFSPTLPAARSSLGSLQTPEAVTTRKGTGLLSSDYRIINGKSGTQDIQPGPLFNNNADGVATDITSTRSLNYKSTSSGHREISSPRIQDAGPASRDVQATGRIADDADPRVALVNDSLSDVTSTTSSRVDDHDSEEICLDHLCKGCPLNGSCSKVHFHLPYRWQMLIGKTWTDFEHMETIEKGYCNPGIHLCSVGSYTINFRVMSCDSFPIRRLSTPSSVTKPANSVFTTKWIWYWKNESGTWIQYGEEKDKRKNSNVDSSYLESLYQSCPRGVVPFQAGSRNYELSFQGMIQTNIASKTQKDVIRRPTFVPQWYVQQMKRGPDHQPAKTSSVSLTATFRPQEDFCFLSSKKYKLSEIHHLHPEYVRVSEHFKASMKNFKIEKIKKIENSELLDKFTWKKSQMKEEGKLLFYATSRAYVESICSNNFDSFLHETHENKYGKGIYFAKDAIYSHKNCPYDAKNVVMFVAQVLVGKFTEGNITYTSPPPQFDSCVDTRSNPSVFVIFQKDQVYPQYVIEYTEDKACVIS

Target: PARP13.1 (ZAP, ZC3HAV1 long isoform) (Homo sapiens) (UniProt Q7Z2W4)
Assay: EMSA
Settings: 10 mM Tris pH 7.5, 1 mM EDTA, 0.1 M KCl, 0.1 mM DTT, 5% glycerol, 0.1 ug/ml tRNA, 20 C, 1 h; Hill fit; purified recombinant protein; label: 5'-32P

Sequence: UCCUACUAGUCCUGACUGCUUAGACAAAGUCAUAGAUUAUGUUCCAGGCAUUUUCCAAGAAAACAGUUUUACAAUCCAAUACAUUCUGGACACCAGUGAUAAGCUGAGUACUGAGCUCUUUCAGGACAAAAGUGAAGAGGCUUCCCUUGACCUCGUGUUUGAGCUGGUGAACCAGUUGCAGUACCACACUCACCAAGAGAACGGAAUUGAAAUUUGCAUGGACUUUCUGCAAGGCACUUGUAUUUAUGGCAGGGAUUGUUUGAAGCACCACACUGUCUUGCCAUAUCAUUGGCAGAUCAAAAGGACAACUACUCAAAAGUGGCAGAGUGUAUUCAAUGAUUCUCAGGAGCACUUGGAAAGAUUUUACUGUAACCCAGAAAAUGAUAGAAUGAGAAUGAAGUAUGGAGGACAAGAAUUUUGGGCAGAUUUGAAUGCCAUGAACGUGUAUGAAACAACUGAAUUUGACCAACUACGAAGGCUGUCCACACCACCCUCUAGCAAUGUCAACUCUAUUUACCACACAGUCUGGAAAUUCUUCUGUAGGGACCACUUUGGAUGGAGAGAGUAUCCCGAGUCUGUCAUUCGAUUGAUUGAAGAAGC [TRAILR4 3'UTR Fragment E (nt 516-1115)]
- Kd: 123 nM

Construct, isoform or probe ends are uncertain for at least one entry.
